PubChem BioAssay AID1671195, Yale University – 2021
The whole screen tested about 22,000 reagents; this is a part drawn at random. Of all reagents, about 1,510 (6.9%) got an active call. 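Active includes knockdowns raising or lowering LDL uptake; positive z-scores mean more uptake, negative mean less.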 Reagent sequences are not shown.

Test: 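Knockdowns that increase or decrease uptake of fluorescent LDL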 (primary screen)
Cells: human Huh7 hepatoma cells
Knock-down reagent: siRNA pool against human genes, 18 nM
Timing: about 2 to 2.5 days of knockdown, then 8 h LDL uptake
Conditions: DiI-labelled LDL at 30 µg/ml for 8 h, in lipoprotein-deficient serum medium
Measurement: 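Per-cell DiI-LDL intensity by automated imaging; well means scaled to the plate median and given as a robust z-score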
Direction: robust z-score: higher = more LDL uptake after knockdown
Active means: 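a gene counts as active if at least two replicate z-scores exceed ±2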

| gene | PubChem SID | robust z-score, replicate 1 | robust z-score, replicate 2 | robust z-score, replicate 3 | Outcome |
| --- | --- | --- | --- | --- | --- |
| LOC389199 | SID442885627 | 1.21 | 1.9 | 1.19 | inactive |
| CCDC9B | SID442887956 | 1.13 | 1.1 | 0.19 | inactive |
| GPR153 | SID442889554 | 0.602 | 0.453 | 0.571 | inactive |
| CHD4 | SID442887167 | 1.26 | 0.893 | 0.759 | inactive |
| ALG11 | SID442888718 | 0.873 | 0.651 | 0.494 | inactive |
| ZBED3 | SID442886640 | 0.835 | 1.28 | 1.19 | inactive |
| SCP2 | SID442902210 | -1.14 | -1.03 | -0.923 | inactive |
| CBX6 | SID442901610 | -0.82 | -1.61 | -0.346 | inactive |
| ATP5MG | SID442883964 | 2.32 | 1.87 | 2.17 | active |
| DACT1 | SID442895075 | -0.327 | -0.574 | 0.509 | inactive |
| ISL1 | SID442885364 | 2.23 | 1.66 | 0.738 | inactive |
| CCL2 | SID442903767 | -1.58 | -1.52 | -1.06 | inactive |
| RBM19 | SID442904747 | -1.72 | -2.35 | -1.52 | inactive |
| NPHS2 | SID442889033 | 0.243 | 1.37 | 0.254 | inactive |
| ZNF569 | SID442903810 | -1.25 | -1.17 | -1.77 | inactive |
| RPL29P19 | SID442904338 | -1.46 | -1.55 | -1.75 | inactive |
| CYP2A13 | SID442886763 | 1.35 | 0.707 | 1.15 | inactive |
| TTLL12 | SID442899061 | -0.134 | -1.18 | -0.404 | inactive |
| ARHGAP25 | SID442898084 | -1.56 | -0.915 | 1.1 | inactive |
| HLA-G | SID442897886 | -0.314 | -0.587 | -0.406 | inactive |
| FUT7 | SID442894682 | 0.535 | -0.367 | -0.438 | inactive |
| EOMES | SID442903259 | -0.979 | -1.43 | -1.36 | inactive |
| SYTL3 | SID442902691 | -0.958 | -1.17 | -1.25 | inactive |
| MAGEB16 | SID442901133 | -0.79 | -0.725 | -1.05 | inactive |
| GPR183 | SID442888575 | 0.395 | 0.866 | 0.828 | inactive |
| ZNF586 | SID442884670 | 1.46 | 3.28 | 1.3 | inactive |
| LOC440464 (retired record) | SID442887213 | 0.881 | 0.799 | 1.2 | inactive |
| PBXIP1 | SID442894634 | -0.983 | 0.427 | 0.303 | inactive |
| C9 | SID442898802 | -0.748 | -1.19 | 0.323 | inactive |
| PKDREJ | SID442895504 | -0.235 | -0.512 | 0.222 | inactive |
| ALDH18A1 | SID442895146 | -0.0537 | -0.209 | -0.156 | inactive |
| MLF2 | SID442899350 | -1.61 | 0.424 | -0.632 | inactive |
| ALMS1P1 | SID442894103 | -0.253 | -0.245 | 0.418 | inactive |
| PTGES3P3 | SID442897164 | -0.269 | -0.108 | -0.686 | inactive |
| LOC402237 (retired record) | SID442895579 | -0.933 | 0.249 | 0.135 | inactive |
| MMP20 | SID442889428 | 0.861 | 0.604 | 0.217 | inactive |
| FLJ39095 | SID442897478 | -0.136 | -0.418 | -0.615 | inactive |
| USP6NL | SID442885096 | 1.07 | 2.9 | 1.08 | inactive |
| LETM2 | SID442896154 | -0.387 | -0.255 | -0.0876 | inactive |
| CSAG2 | SID442894497 | 0.436 | -0.215 | -0.431 | inactive |
| SLC35A2 | SID442898286 | -0.37 | -0.499 | -0.577 | inactive |
| PTHLH | SID442889346 | 0.474 | 0.921 | 0.325 | inactive |
| SLC12A6 | SID442884089 | 2.05 | 1.72 | 2.2 | active |
| WHR1 | SID442894909 | -0.158 | 0.38 | -0.561 | inactive |
| TRIM67 | SID442888829 | 0.226 | 0.598 | 1.14 | inactive |
| RPL7AP66 | SID442893921 | -0.0284 | -0.187 | 0.204 | inactive |
| RAB43 | SID442901100 | -0.832 | -0.927 | -0.791 | inactive |
| FRMD5 | SID442887648 | 0.84 | 0.733 | 1.04 | inactive |
| TTC9 | SID442896184 | -0.149 | -0.939 | 0.349 | inactive |
| PLAC8L1 | SID442903842 | -1.48 | -1.21 | -1.54 | inactive |
| LINC01579 | SID442900076 | -0.729 | -0.747 | -0.65 | inactive |
| GRHPR | SID442902996 | -1.03 | -0.0875 | -2.46 | inactive |
| RAB3C | SID442891929 | 0.502 | 0.059 | 0.125 | inactive |
| TIPARP | SID442904409 | -1.12 | -3.01 | -0.754 | inactive |
| LOC389427 (retired record) | SID442902886 | -1.23 | -1.06 | -1.22 | inactive |
| UGT1A7 | SID442903230 | -1.32 | -1.49 | -0.938 | inactive |
| SAMSN1 | SID442886434 | 1.64 | 1.54 | 0.301 | inactive |
| SAMSN1 | SID442899434 | -0.823 | -0.735 | -0.303 | inactive |
| TMEM196 | SID442895185 | -0.0338 | -0.416 | 0.0178 | inactive |
| LOC342853 (retired record) | SID442895440 | -0.137 | -0.281 | -0.0882 | inactive |
| FNBP4 | SID442901298 | -0.268 | -1.51 | -0.854 | inactive |
| TSPO | SID442890541 | 0.396 | 0.271 | 0.545 | inactive |
| SCO2 | SID442892721 | 0.784 | -0.265 | -0.125 | inactive |
| GAPDHS | SID442893085 | 0.417 | -0.341 | 0.194 | inactive |
| DEFB124 | SID442894747 | 0.0306 | -0.0867 | -0.235 | inactive |
| SLC2A13 | SID442896759 | -0.271 | -0.521 | -0.137 | inactive |
| CASC22 | SID442883416 | 3.02 | 3.22 | 2.64 | active |
| HSP90AA3P | SID442898213 | -0.524 | -0.185 | -0.711 | inactive |

9 entries already listed, ordered by “robust z-score, replicate 1”, low to high.
| gene | PubChem SID | robust z-score, replicate 1 | robust z-score, replicate 2 | robust z-score, replicate 3 | Outcome |
| --- | --- | --- | --- | --- | --- |
| LETM2 | SID442896154 | -0.387 | -0.255 | -0.0876 | inactive |
| SLC35A2 | SID442898286 | -0.37 | -0.499 | -0.577 | inactive |
| WHR1 | SID442894909 | -0.158 | 0.38 | -0.561 | inactive |
| RPL7AP66 | SID442893921 | -0.0284 | -0.187 | 0.204 | inactive |
| TRIM67 | SID442888829 | 0.226 | 0.598 | 1.14 | inactive |
| CSAG2 | SID442894497 | 0.436 | -0.215 | -0.431 | inactive |
| PTHLH | SID442889346 | 0.474 | 0.921 | 0.325 | inactive |
| USP6NL | SID442885096 | 1.07 | 2.9 | 1.08 | inactive |
| SLC12A6 | SID442884089 | 2.05 | 1.72 | 2.2 | active |
